Where “and” joins values, the source holds several entries; their conditions need not be identical. Equal entries are not always repeated. Structures can show the parent of a compound that is named as a salt. This is one part of the list. Single values are uncertain here, since repeats match poorly.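 HEK293T cells were given each compound shortly before transfection with a reporter in which red mCherry is followed by the SARS-CoV-2 frameshift element and then GFP in the −1 frame, so GFP appears only after frameshifting.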
Experiments:
[1] = tested on: SARS-CoV-2 -1 PRF reporter mCherry-FSE-GFP(-1); test: mCherry (red) intensity as percent of control; higher = higher upstream reporter expression; conditions: 10 µM; 24 h; HEK293T
[2] = tested on: SARS-CoV-2 -1 PRF reporter mCherry-FSE-GFP(-1); test: percent effect, decrease of GFP/mCherry ratio (-1 PRF reporter) relative to controls; higher = stronger frameshift inhibition; conditions: 10 µM; 24 h; HEK293T

SMILES	mCherry [1]	percent effect [2]
CCOC(=O)C(C)(C)Oc1ccc(Cl)cc1 [clofibrate]	87.5% and 97.3%	-2.65% and 3.42%
CCN(CC)CCOc1ccc(C(O)(Cc2ccc(Cl)cc2)c2ccc(C)cc2)cc1 (stereo unspecified) [triparanol]	27.9%	-6.88%
CN(C(=O)C(Cl)Cl)c1ccc(OC(=O)c2ccco2)cc1	84.9%	-4.63%
Cc1cc2c(s1)Nc1ccccc1N=C2N1CCN(C)CC1 [Olanzapine]	110%	1.15%
Cn1c(=O)cnn(CCCCN2CCN(c3ncccn3)CC2)c1=O [eptapirone]	99.9%	-1.48%
CCN1CC(CCN2CCOCC2)C(c2ccccc2)(c2ccccc2)C1=O (stereo unspecified) [doxapram]	101%	-1.7%
CCCCCCc1ccc(O)cc1O.Nc1c2ccccc2nc2ccccc12 [acrisorcin]	15.3%	-16.2%
CC(=O)CC(c1ccccc1)c1c(O)c2ccccc2oc1=O (stereo unspecified)	104%	-3.21%
COc1c2ccoc2cc2oc(CO[C@@H]3O[C@H](CO)[C@@H](O)[C@H](O)[C@H]3O)cc(=O)c12 [khelloside]	113%	0.241%
Cc1cc2c(cc1S(N)(=O)=O)S(=O)(=O)CCC2 [meticrane]	92.1%	-0.486%
O=P(O)(O)C(Sc1ccc(Cl)cc1)P(=O)(O)O [tiludronic acid]	128%	-4.31%
Nc1ccn([C@H]2CO[C@@H](CO)S2)c(=O)n1 [apricitabine]	88.8%	-4.59%
CC(C)(C)[C@]1(O)CCN2C[C@H]3c4ccccc4CCc4cccc(c43)[C@@H]2C1 [(+)-Butaclamol·HCl]	76.8%	2.5%
CC(=O)OCC(=O)[C@@]1(O)CC[C@H]2[C@@H]3CCC4=CC(=O)CC[C@]4(C)[C@H]3C(=O)C[C@@]21C [Cortisone acetate]	89.4%	1.26%
C[C@@H]1C/C=C/C=C/C=C/C=C/[C@H](O[C@@H]2O[C@H](C)[C@@H](O)[C@H](N)[C@@H]2O)C[C@@H]2O[C@](O)(C[C@@H](O)C[C@H]3O[C@@H]3/C=C/C(=O)O1)C[C@H](O)[C@H]2C(=O)O [Natacyn]	106%	-5.38%
N=C(N)NC(=O)Cc1c(Cl)cccc1Cl	97.9%	-2.03%
O=C(O)CCCCC1CCSS1 (stereo unspecified)	91.1%	1.9%
C1CCN2C[C@@H]3C[C@@H](CN4CCCC[C@@H]34)[C@H]2C1 [(-)-Sparteine]	97.7%	2.58%
Cc1ccccc1OCC(O)CO (stereo unspecified) [mephenesin]	86.7%	-3.28%
Cc1ccc(O)c([C@H](CCN(C(C)C)C(C)C)c2ccccc2)c1 [tolterodine]	102%	-2.31%
NC[C@@H]1CC[C@@H](N)[C@@H](O[C@H]2[C@H](O)[C@@H](O[C@H]3O[C@H](CO)[C@@H](O)[C@H](N)[C@H]3O)[C@H](N)C[C@@H]2N)O1	115%	0.49%
Clc1ccc(C(Cn2ccnc2)OCc2c(Cl)cccc2Cl)c(Cl)c1 (stereo unspecified) [isoconazole]	85.4%	0.0406%
O=c1ccn([C@@H]2O[C@H](COP(=O)(O)OP(=O)(O)OP(=O)(O)OP(=O)(O)OC[C@H]3O[C@@H](n4ccc(=O)[nH]c4=O)[C@H](O)[C@@H]3O)[C@@H](O)[C@H]2O)c(=O)[nH]1 [diquafosol]	101%	-3.86%

SMILES	mCherry [1]	percent effect [2]
C#C[C@]1(OC(C)=O)CC[C@H]2[C@@H]3CCC4=CC(=O)CC[C@@H]4[C@H]3CC[C@@]21C	120%	-11.2%
CC(=O)Nc1ccc(C(=O)O)cc1 [acedoben]	129%	3.75%
CC(C)OC(=O)CCC/C=C\C[C@@H]1[C@@H](/C=C/C(F)(F)COc2ccccc2)[C@H](O)C[C@@H]1O [Tafluprost]	80.3%	-3.76%
CCOc1nc2cccc(C(=O)OCc3oc(=O)oc3C)c2n1Cc1ccc(-c2ccccc2-c2noc(=O)[nH]2)cc1	120%	-2.24%
CC(C)(C)NC[C@H](O)COc1ccccc1C1CCCC1	98.7%	-11%
CCC(C)n1ncn(-c2ccc(N3CCN(c4ccc(OCC5COC(Cn6cncn6)(c6ccc(Cl)cc6Cl)O5)cc4)CC3)cc2)c1=O (stereo unspecified)	87.9%	-5.41%
CCC(=O)O[C@]1(C(=O)SCF)[C@H](C)C[C@H]2[C@@H]3C[C@H](F)C4=CC(=O)C=C[C@]4(C)[C@@]3(F)[C@@H](O)C[C@@]21C	103%	-0.479%
C=Cc1c(C)c2cc3[nH]c(cc4nc(cc5nc(cc1[nH]2)C(C)=C5CCC(=O)O)C(CCC(=O)O)=C4C)c(C)c3C=C	121%	-3.3%
CCCCOC(=O)c1ccc(N)cc1	123%	-8.96%
CC(=O)O[C@@H]1C[C@@H]2CC[C@@]1(C)C2(C)C	92.7%	1.62%
CCOc1ccc(/N=C(\C)Nc2ccc(OCC)cc2)cc1 [phenacaine]	114%	-2.29%
CC(C)OC(=O)Nc1ccc2[nH]c(-c3cscn3)nc2c1 [cambendazole]	38.7%	-8.19%
N=C(N)NCCN1CCCCCCC1 [guanethidine]	90.8%	-2.5%
CCCCN1CCCC1C(=O)Nc1c(C)cc(C)cc1C (stereo unspecified) [bumecaine]	104%	-0.472%
CSc1ccc2c(c1)C(N1CCN(C)CC1)Cc1ccccc1S2 (stereo unspecified) [metitepine]	110%	-2.25%
CC(=O)Oc1cc(C(C)C)c(OCCN(C)C)cc1C [moxisylyte]	97.5%	0.0548%
Cc1cc(O)c(S(=O)(=O)O)cc1Cc1cc(S(=O)(=O)O)c(O)cc1C [dicresulene]	77.3%	0.369%
CCn1cc(C(=O)O)c(=O)c2ccc(C)nc21 [nalidixic acid]	115%	-2.76%
O=C(O)C1=C(CSc2nnnn2CS(=O)(=O)O)CS[C@@H]2[C@H](NC(=O)[C@H](O)c3ccccc3)C(=O)N12 [Monocid]	114%	-2.13%
S=C1NCCC(COc2ccccc2)O1 (stereo unspecified) [tifemoxone]	96.9%	-3.94%
CO/N=C(\C(=O)N[C@@H]1C(=O)N2C(C(=O)O)=C(C[N+]3(C)CCCC3)CS[C@H]12)c1csc(N)n1 [Maxipeme]	92.7%	-3.73%
CN1CCC(OC(c2ccccc2)c2ccccc2)CC1 [diphenylpyraline]	95.6%	-5.18%
O=C1CC2(CCCC2)CC(=O)N1CCCCN1CCN(c2ncccn2)CC1 [buspirone]	87% and 76.1%	1.65% and -10.9%

SMILES	mCherry [1]	percent effect [2]
COc1ccc(C(=O)c2ccccc2)c(O)c1 [oxybenzone]	91.4%	-1.02%
c1ccc2c(c1)CCCC2C1=NCCN1 (stereo unspecified) [tetryzoline]	131%	-6.35%
Clc1cccc(Cl)c1NC1=NCCN1 [Clonidine·HCl]	89.8%	1.91%
CCCCC[C@](C)(O)/C=C/[C@@H]1[C@@H](C/C=C\CCCC(=O)O)[C@@H](O)C[C@H]1O [carboprost]	73.4%	-2.74%
CO/N=C(\C(=O)N[C@@H]1C(=O)N2C(C(=O)O)=C(COC(C)=O)CS[C@H]12)c1csc(N)n1	151%	2.93%
Cc1cc(-c2ccccc2)nnc1NCCN1CCOCC1 [minaprine]	101%	-6.44%
CC(=O)OCC1OC([S-])C(OC(C)=O)C(OC(C)=O)C1OC(C)=O.CC[PH+](CC)CC.[Au+] (stereo unspecified) [Auranofin]	856%	-16.4%
CNC1CCCN(c2c(F)cc3c(=O)c(C(=O)O)cn(C4CC4)c3c2OC)C1 (stereo unspecified) [balofloxacin]	96.3%	-0.369%
CC(=O)OCC1=C(C(=O)O)N2C(=O)[C@@H](NC(=O)CSc3ccncc3)[C@H]2SC1 [cefapirin]	63.2%	-4.71%
Cc1cc2c(cc1CC(=O)c1sccc1S(=O)(=O)Nc1onc(C)c1Cl)OCO2 [Sitaxentan]	82.5%	-3.1%
O=C(O)CCn1c2c(c3ccccc31)C[C@H](NS(=O)(=O)c1ccc(F)cc1)CC2 [ramatroban]	71.2%	0.865%
O=C(c1cc(O)c(O)c(O)c1)c1ccc(O)c(O)c1O [exifone]	86.9%	-28.5%
CC(Cc1cccc(C(F)(F)F)c1)NCCOC(=O)c1ccccc1 (stereo unspecified) [benfluorex]	96.4%	-0.68%
CC(C[N+](C)(C)C)OC(N)=O (stereo not drawn) [Carbamyl-beta-methylcholine]	85.9%	1.22%
CC(C)NCC(O)c1ccc2ccccc2c1 (stereo unspecified) [pronetalol]	104% and 96.3%	-2.22% and 0.399%
Cn1c(=O)c2c(ncn2CCN2CCC(c3c[nH]c4ccccc34)CC2)n(C)c1=O [tameridone]	118%	3.78%
CC[C@H]1OC(=O)[C@H](C)[C@@H](O[C@H]2C[C@@](C)(OC)[C@@H](O)[C@H](C)O2)[C@H](C)[C@@H](O[C@@H]2O[C@H](C)C[C@H](N(C)C)[C@H]2O)[C@](C)(O)C[C@@H](C)/C(=N/OC)[C@H](C)[C@@H](O)[C@]1(C)O [lexithromycin]	80.9%	-2.64%
Cn1nnc2c(C(N)=O)ncn2c1=O [temozolomide]	72.9% and 71%	-2.68% and 0.165%
O=c1nc2cccccc-2n1Cc1ccccc1 [benhepazone]	98.7%	-2.39%
CCN1CCN(C(=O)N[C@@H](C(=O)N[C@@H]2C(=O)N3C(C(=O)O)=C(CSc4nnnn4C)CS[C@H]23)c2ccc(O)cc2)C(=O)C1=O [Cefobid]	96.3% and 108%	-2.99% and 1.52%
CC1(C)O[C@@H]2C[C@H]3[C@@H]4C[C@H](F)C5=CC(=O)CC[C@]5(C)[C@H]4[C@@H](O)C[C@]3(C)[C@]2(C(=O)CO)O1 [fludroxycortide]	146% and 121%	-0.435% and -8.5%
CC(=O)N[C@H](Cc1ccc2ccccc2c1)C(=O)N[C@H](Cc1ccc(Cl)cc1)C(=O)N[C@H](Cc1cccnc1)C(=O)N[C@@H](CO)C(=O)N[C@@H](Cc1ccc(O)cc1)C(=O)N[C@H](CCCNC(N)=O)C(=O)N[C@@H](CC(C)C)C(=O)N[C@@H](CCCNC(=N)N)C(=O)N1CCC[C@H]1C(=O)N[C@H](C)C(N)=O [Cetrotide]	122%	-7.62%

Part of the list above in a different format:
O=P(O)(O)C(Sc1ccc(Cl)cc1)P(=O)(O)O [tiludronic acid]
  mCherry [1]: 128%; percent effect [2]: -4.31%
Nc1ccn([C@H]2CO[C@@H](CO)S2)c(=O)n1 [apricitabine]
  mCherry [1]: 88.8%; percent effect [2]: -4.59%
Cn1c(=O)c2c(ncn2CCN2CCC(c3c[nH]c4ccccc34)CC2)n(C)c1=O [tameridone]
  mCherry [1]: 118%; percent effect [2]: 3.78%
